Some of the results follow.

This experiment deals with T1, OsSMF1 (Oryza sativa, UniProt Q6ZLB0 1-436).
T1 sequence: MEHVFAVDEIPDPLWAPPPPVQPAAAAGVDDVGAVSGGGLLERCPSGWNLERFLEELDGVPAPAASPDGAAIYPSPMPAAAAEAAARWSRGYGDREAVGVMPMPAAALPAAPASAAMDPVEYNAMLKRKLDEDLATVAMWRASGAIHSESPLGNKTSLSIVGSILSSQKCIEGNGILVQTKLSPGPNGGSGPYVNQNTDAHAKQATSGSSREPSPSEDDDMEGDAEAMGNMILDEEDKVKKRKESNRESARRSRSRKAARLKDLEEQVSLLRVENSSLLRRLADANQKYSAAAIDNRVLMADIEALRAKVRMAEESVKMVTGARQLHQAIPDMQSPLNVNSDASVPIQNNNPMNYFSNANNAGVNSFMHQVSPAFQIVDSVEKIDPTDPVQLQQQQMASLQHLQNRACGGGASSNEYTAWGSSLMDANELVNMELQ
Description: protein-binding microarray (RPBM); PBS, 2% BSA, 51.3 ng/ul salmon testes DNA, 50 uM zinc acetate, 200 nM TF, 25 C, 1 h; high values mean tight binding. Conditions: protein: recombinant; tags: N-terminal polyhistidine and DsRed monomer fusion (pET32a); chain copies: 2; label: CyDye5-dUTP incorporated in the synthesized complementary strand; 3' TTTTT single-stranded linker to array surface; dsDNA, one strand shown. Put shortly:
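Transcription factors, each fused N-terminally to a polyhistidine tag and DsRed, were expressed in E. coli BL21-CodonPlus and purified on Ni–NTA. A custom Agilent array was made double-stranded by primer extension with Cy5-dUTP and blocked with 2% BSA. It was incubated with 200 nM protein in PBS, 2% BSA, salmon testes DNA and 50 µM zinc acetate at 25 °C for 1 h, then washed. The binding signal is per-feature fluorescence intensity (arbitrary units) read on an Axon 4000B scanner.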
In the case of “CTGTGGGACCCACCACTAAAATGACACATGCCGTTGATTGCGGAGTCACCTAGTGCAG”, the binding signal was 3170 fluorescence intensity (a.u.).

“ATACAAGGAAACGTAATACCTAAGTCATGATCTGTTACATCGGAGTCACCTAGTGCAG”: the binding signal was 3290 fluorescence intensity (a.u.).

In the case of “AGAACCTGAGTGGGCGGACGGCGCTGCACATGGCGGCGGCCGGAGTCACCTAGTGCAG”, the binding signal was 3480 fluorescence intensity (a.u.).

On to “CCAGCTGCGGTACTTACATGTAGTATCATGTATGGATTAACGGAGTCACCTAGTGCAG”, for which the binding signal is 30700 fluorescence intensity (a.u.).

For the sequence “AAGTTTCTACTCATGCGTTGGCAAGAATTAGCACATTCAGCGGAGTCACCTAGTGCAG”, the binding signal is 4210 fluorescence intensity (a.u.).

For “GCTGCCGCCGACCAGCCCGCCTACGGCGATCGCCGGCCGTCGGAGTCACCTAGTGCAG”, the binding signal is 3290 fluorescence intensity (a.u.).

In the case of “TTATTTGTGACGTACTCCATCCGTCGAATAAATATCAACACGGAGTCACCTAGTGCAG”, the binding signal was 3720 fluorescence intensity (a.u.).

On to “CTCAACTATCTCTCGAGTATGATTCACGTCCTTCAACCACCGGAGTCACCTAGTGCAG”, for which the binding signal is 4760 fluorescence intensity (a.u.).

Consider “GTCATGGCGCCGGGTTTCATCTTTCAAACGGGGCATTGAACGGAGTCACCTAGTGCAG”, for which the binding signal is 3200 fluorescence intensity (a.u.).

Consider “ACTCATCGCCACGTTGCTAATTTAGCTGACTTTGTCAACTCGGAGTCACCTAGTGCAG”, for which the binding signal is 6990 fluorescence intensity (a.u.).

In the case of “TAGCTCTCGCCCCGGAAGACGCCACCCAGCGATCACTTCTCGGAGTCACCTAGTGCAG”, the binding signal was 3660 fluorescence intensity (a.u.).

Turning to “CCGGCAGCGAGCCATGAGTGGCGGCATGTCACGTTCCGCCCGGAGTCACCTAGTGCAG”, the binding signal is 3420 fluorescence intensity (a.u.).

Consider “ACAGACACCCCTCAAAGGACCTGACGTCCCCGTCGGTCCACGGAGTCACCTAGTGCAG”, for which the binding signal was 4010 fluorescence intensity (a.u.).

Turning to “CTATATCCTCTGTTCGTCACTGCCTTCCTCTCCAAGTCCACGGAGTCACCTAGTGCAG”, the binding signal is 3530 fluorescence intensity (a.u.).

For “TGCAATTTTACTTTACCTCCGTGAGGGGCAGCACATTTTGCGGAGTCACCTAGTGCAG”, the binding signal is 4050 fluorescence intensity (a.u.).

Turning to “TGTCATACATGAGGGAGAGCTCCATCTCCATCAGCGTCCACGGAGTCACCTAGTGCAG”, the binding signal is 3330 fluorescence intensity (a.u.).

In the case of “TGGCAAATAGTTCCGTGATGTCAGCTTGGAAGCATCCTGCCGGAGTCACCTAGTGCAG”, the binding signal was 6410 fluorescence intensity (a.u.).

Consider “GAGCAATTAGGTGGTATAGCCAACACACGTAACTACAAGGCGGAGTCACCTAGTGCAG”, for which the binding signal was 3610 fluorescence intensity (a.u.).

Regarding “GTGATCGCGAGCTCCGCGGTCGGACACGTCGCCGAGGTCGCGGAGTCACCTAGTGCAG”, the binding signal is 3470 fluorescence intensity (a.u.).

As to “TCAGTTGCTGCCACCCTGCCACTGCAGAAATTACGATTCTCGGAGTCACCTAGTGCAG”, the binding signal is 3310 fluorescence intensity (a.u.).

“CATTTTGGAGCTGCAGGACCGTCGTGGTGCCACGTGACCGCGGAGTCACCTAGTGCAG”: the binding signal was 15900 fluorescence intensity (a.u.).

Regarding “TCGGTGCACTTGAGGTTGGCCATGACGCAACCCCTCCTCTCGGAGTCACCTAGTGCAG”, the binding signal is 6380 fluorescence intensity (a.u.).

For the sequence “AAGAAAATCCGTGCCAGCGCATCTATAAATGGACAAACTCCGGAGTCACCTAGTGCAG”, the binding signal is 37100 fluorescence intensity (a.u.).

In the case of “TTAGTTGCAATTGGTTCTTCTTCAGAGAGGCTAATTAGTGCGGAGTCACCTAGTGCAG”, the binding signal is 3160 fluorescence intensity (a.u.).

Turning to “CATGGTCCTACCTGTCATACACACATTACGTCTTGGAGTCCGGAGTCACCTAGTGCAG”, the binding signal is 3410 fluorescence intensity (a.u.).

On to “ACATACACACACCACCACCAACATAGCTTCTTTTGTCACTCGGAGTCACCTAGTGCAG”, for which the binding signal was 3160 fluorescence intensity (a.u.).

For “ACACTGGCGCGCCCACGTGGAGCTCCGGGTCGTCGGCGTCCGGAGTCACCTAGTGCAG”, the binding signal was 8350 fluorescence intensity (a.u.).

With “GGGATGGCCAGATTGGAACTCAGCAGACTCGCTGATGACTCGGAGTCACCTAGTGCAG”, the binding signal was 3800 fluorescence intensity (a.u.).

Regarding “CACATTGTCAGCAGCTAGGCTAGTAACAGGTCATCATGCCCGGAGTCACCTAGTGCAG”, the binding signal was 5090 fluorescence intensity (a.u.).

Regarding “TTTTGGCATTTTAGACCAAAATTATTTGAAATTTCGACTGCGGAGTCACCTAGTGCAG”, the binding signal was 26400 fluorescence intensity (a.u.).

Consider “CTCGCCGTCGCTGCCTCGCTGGCGCCCATACCTGGAGCGACGGAGTCACCTAGTGCAG”, for which the binding signal is 6980 fluorescence intensity (a.u.).

Turning to “GTTCTTGGTTAGGAATTAACATGATGTCATGGATCGAGTCCGGAGTCACCTAGTGCAG”, the binding signal was 10800 fluorescence intensity (a.u.).

Consider “ACACACCACGTAGCGTCACATCATCCTCATGTAACAGCCTCGGAGTCACCTAGTGCAG”, for which the binding signal was 5090 fluorescence intensity (a.u.).

For “AATCCTATCCTTATCTATCCACTGGACACGAAGGCAACACCGGAGTCACCTAGTGCAG”, the binding signal is 8870 fluorescence intensity (a.u.).

With “ATAGTCCGGAGTAAGAAGGATTACCTCGTTACGAAGTCACCGGAGTCACCTAGTGCAG”, the binding signal is 7440 fluorescence intensity (a.u.).

For the sequence “AGGACATGAGGGCATACACACGTTTCAAGGCCCCGTGGAACGGAGTCACCTAGTGCAG”, the binding signal was 3170 fluorescence intensity (a.u.).

On to “AAAATTTCTATGTAATGTCTAATGCCATGTAAGTTTTGGACGGAGTCACCTAGTGCAG”, for which the binding signal was 3260 fluorescence intensity (a.u.).

As to “ACGAGTCCATGACTAGCATGCGTCACTGAAACTGAAGTTGCGGAGTCACCTAGTGCAG”, the binding signal was 4750 fluorescence intensity (a.u.).

Turning to “TATAGCTATGATATGCTTACTATTTCATATTGCTTTCATGCGGAGTCACCTAGTGCAG”, the binding signal was 3140 fluorescence intensity (a.u.).

Take “GATCATACGAACCCCACCGCCACGTCTACTCCCTCGCCGCCGGAGTCACCTAGTGCAG”: the binding signal is 9250 fluorescence intensity (a.u.).

On to “AGTATTTATCGTTTTAGTTAATTTGATGAATCTGTATATTCGGAGTCACCTAGTGCAG”, for which the binding signal was 16300 fluorescence intensity (a.u.).

On to “TCTTTCATATATTATGGATTTATGGTAGTGTTCTTGCTGTCGGAGTCACCTAGTGCAG”, for which the binding signal is 29500 fluorescence intensity (a.u.).

(Values after paper PMC7819943, “Rice protein-binding microarrays: a tool to detect cis-acting elements near promoter regions in rice”.)
